Values from PubChem BioAssay AID1159584 (Peter MacCallum Cancer Centre, 2016).
Screen: 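Knock-downs that harm CDH1-null cells more than parental MCF10A cells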 (primary screen). System: human MCF10A breast epithelial cells, parental and CDH1-null. Reagents: siRNA against human genes. Measurement: 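ATP luminescence (CellTiter-Glo) viability per line relative to mean mock wells over all plates, and the ratio of CDH1-null to parental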. Reading the numbers: CDH1-null / parental viability ratio: higher = CDH1-null cells survive relatively better than parental; CDH1-null viability vs mock: higher = more viable CDH1-null cells; parental viability vs mock: higher = more viable parental cells.
Shown is a random part of about 18,000 reagents tested. Not stated in the record: the amount of reagent, the time to read-out.

| target gene | CDH1-null / parental viability ratio | CDH1-null viability vs mock (fraction of mock) | parental viability vs mock (fraction of mock) |
| --- | --- | --- | --- |
| GPR22 | 1.4 | 0.95 | 0.68 |
| WBP1 | 1.03 | 0.64 | 0.62 |
| LTO1 | 1.06 | 0.66 | 0.62 |
| NUP205 | 1.29 | 0.36 | 0.28 |
| CACNA2D1 | 1.38 | 1.08 | 0.78 |
| COL6A1 | 0.94 | 0.49 | 0.52 |
| CHAF1B | 1.03 | 0.66 | 0.64 |
| SLC60A2 | 0.77 | 0.8 | 1.04 |
| ACER2 | 0.96 | 0.46 | 0.48 |
| NGFR | 0.98 | 0.96 | 0.98 |
| GJC3 | 0.84 | 0.36 | 0.43 |
| DENND1A | 0.8 | 0.7 | 0.88 |
| ZNF2 | 0.86 | 0.86 | 1 |
| ACRV1 | 0.94 | 0.68 | 0.72 |
| LDB3 | 1.21 | 0.29 | 0.24 |
| PCDHA2 | 1.27 | 0.76 | 0.6 |
| BACE2 | 1.38 | 0.69 | 0.5 |
| COX7A2 | 0.83 | 0.63 | 0.76 |
| RAB41 | 1.07 | 0.81 | 0.76 |
| SHLD2 | 1.31 | 0.92 | 0.7 |
| AARSD1 | 0.84 | 0.64 | 0.76 |
| CSRP2 | 1.44 | 0.72 | 0.5 |
| MAP2K7 | 0.89 | 0.59 | 0.66 |
| LYSMD2 | 0.75 | 0.63 | 0.84 |
| AP5S1 | 1.48 | 0.8 | 0.54 |
| GFRA1 | 0.95 | 0.86 | 0.91 |
| CNMD | 1.45 | 1.12 | 0.77 |
| USP12 | 1.14 | 0.84 | 0.74 |
| EIF3L | 0.94 | 0.66 | 0.7 |
| SERINC3 | 1.08 | 1.25 | 1.16 |
| GAN | 0.81 | 0.66 | 0.81 |
| ZNF480 | 1.08 | 0.98 | 0.91 |
| SNAPIN | 1.23 | 0.86 | 0.7 |
| DPRX | 0.92 | 0.72 | 0.78 |
| CELF4 | 1.08 | 0.93 | 0.86 |
| EFCAB12 | 0.79 | 0.6 | 0.76 |
| GAS6 | 1.22 | 0.61 | 0.5 |
| WNT5B | 0.76 | 0.5 | 0.66 |
| MFAP3L | 1.07 | 0.45 | 0.42 |
| CRNKL1 | 0.72 | 0.29 | 0.4 |
| ACTB | 1.38 | 0.55 | 0.4 |
| LYZL2 | 0.93 | 0.76 | 0.82 |
| PAXBP1 | 1.17 | 0.98 | 0.84 |
| APEX2 | 0.9 | 0.77 | 0.86 |
| C1orf174 | 1.52 | 0.76 | 0.5 |
| LYPLAL1 | 1.07 | 1.01 | 0.94 |
| AURKB | 0.8 | 0.32 | 0.4 |
| AGPAT5 | 1.11 | 0.91 | 0.82 |
| TAS2R41 | 1.15 | 0.78 | 0.68 |
| NFATC1 | 0.88 | 0.69 | 0.78 |
| CNOT10 | 1.05 | 0.89 | 0.85 |
| TMEM170A | 0.95 | 0.92 | 0.97 |
| HBD | 0.95 | 0.81 | 0.85 |
| LYG1 | 1.23 | 0.86 | 0.7 |
| TTC32 | 1.15 | 0.71 | 0.62 |
| MDH2 | 1.07 | 1.03 | 0.96 |
| INHBC | 1.11 | 1.1 | 0.99 |
| EIF3F | 1.34 | 1.07 | 0.8 |
| SP1 | 0.91 | 0.86 | 0.94 |
| UNC79 | 1.24 | 0.57 | 0.46 |
| EXD3 | 1.16 | 0.88 | 0.76 |
| LIN28A | 1.12 | 0.83 | 0.74 |
| MSH5 | 0.86 | 0.74 | 0.86 |
| MED13L | 1.08 | 0.78 | 0.72 |
| NKPD1 | 0.92 | 0.78 | 0.85 |
| GNG7 | 0.97 | 0.77 | 0.79 |
| INA | 1.19 | 0.68 | 0.57 |
| EFNB3 | 0.82 | 0.55 | 0.67 |
